Values are relative to the signal before dosing, not to a vehicle control; the signal also falls without drug.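 Fibroblast labels denote human fibroblasts, mainly primary ones from uterus (C12385, HUF), lung (H6013), bone (Hs27A), adrenal (HADF) and skin (WS1), plus mammary HMF and breast cancer-associated Hs343T. Cancer cells are basal-like or mesenchymal-like triple-negative breast cancer lines. A hit is a response shift exceeding 3x replicate standard deviation. The tissue of the other fibroblasts is not given here.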
Test system: MDAMB468
Test: relative JC-1 red fluorescence (viability) vs pre-drug, coculture with fibroblast (fraction); higher = more viable cancer cells
Experimental: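 JC-1 labelled TNBC cells cocultured 1:1 (1,500 cells each) with CellTrace Violet stained primary or stromal fibroblasts in 384-well plates in FluoroBrite medium, treated with one of 42 anticancer drugs at 0.1, 1, 10 or 100 uM. JC-1 red fluorescence (mitochondrial integrity in cancer cells only) was read by plate reader every 8 h for 72 h. Values are normalised to each well's pre-drug value. The stock of one drug was tenfold lower, so its dose labels may be too high.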

CCN(CC)CCNC(=O)c1c(C)[nH]c(/C=C2\C(=O)Nc3ccc(F)cc32)c1C [Sunitinib]
relative JC-1 red fluorescence
Conditions	8 h	16 h	24 h	32 h	40 h	48 h	56 h	64 h	72 h
0.1 µM, coculture fibroblast: C12385	0.829	0.842	0.848	0.8205	0.797	0.809	0.786	0.792	0.795
0.1 µM, coculture fibroblast: H6013	0.867	0.874	0.846	0.842	0.828	0.846	0.8327	0.8353	0.787
0.1 µM, coculture fibroblast: H6019	0.816	0.7945	0.7686	0.7093	0.6791	0.6755	0.627	0.592	0.57
0.1 µM, coculture fibroblast: H6076	0.891	0.9285	0.8936	0.893	0.8286	0.8351	0.809	0.797	0.835
0.1 µM, coculture fibroblast: H6231	0.815	0.879	0.781	0.769	0.724	0.708	0.6713	0.654	0.654
0.1 µM, coculture fibroblast: HADF	0.87	0.8659	0.8186	0.811	0.779	0.776	0.743	0.739	0.697
0.1 µM, coculture fibroblast: HCFa	0.858	0.831	0.773	0.736	0.681	0.679	0.637	0.6	0.564
0.1 µM, coculture fibroblast: HCPF	0.84708	0.9371	0.861	0.851	0.795	0.763	0.722	0.713	0.698
0.1 µM, coculture fibroblast: HHSteC	0.889	0.887	0.8397	0.8018	0.7757	0.78	0.719	0.701	0.645
0.1 µM, coculture fibroblast: HMF	0.82	0.932	0.866	0.844	0.7897	0.772	0.7245	0.7038	0.691
0.1 µM, coculture fibroblast: HPFa	0.907	0.8704	0.839	0.779	0.7594	0.7551	0.699	0.683	0.603
0.1 µM, coculture fibroblast: HUF	0.866	0.804	0.764	0.705	0.666	0.654	0.615	0.603	0.595
0.1 µM, coculture fibroblast: Hs5	0.921	0.921	0.895	0.867	0.802	0.783	0.754	0.728	0.7527
0.1 µM, coculture fibroblast: Hs27A	0.8406	0.849	0.7933	0.797	0.7408	0.7419	0.706	0.69	0.641
0.1 µM, coculture fibroblast: Hs343T	0.882	0.968	0.924	0.907	0.837	0.82	0.772	0.753	0.74
0.1 µM, coculture fibroblast: WS1	0.806	0.759	0.721	0.657	0.611	0.591	0.569	0.553	0.545
1 µM, coculture fibroblast: C12385	0.861	0.814	0.798	0.756	0.7044	0.7	0.659	0.6432	0.6408
1 µM, coculture fibroblast: H6013	0.852	0.867	0.839	0.841	0.832	0.847	0.833	0.825	0.776
1 µM, coculture fibroblast: H6019	0.815	0.804	0.773	0.734	0.69	0.675	0.624	0.585	0.563
1 µM, coculture fibroblast: H6076	0.8969	0.934	0.884	0.874	0.801	0.793	0.759	0.738	0.752
1 µM, coculture fibroblast: H6231	0.824	0.91	0.853	0.823	0.767	0.741	0.6916	0.65693	0.638
1 µM, coculture fibroblast: HADF	0.899	0.852	0.7979	0.7892	0.748	0.739	0.704	0.693	0.655
1 µM, coculture fibroblast: HCFa	0.856	0.865	0.83	0.811	0.776	0.774	0.723	0.691	0.64
1 µM, coculture fibroblast: HCPF	0.828	0.912	0.876	0.866	0.792	0.758	0.707	0.691	0.669
1 µM, coculture fibroblast: HHSteC	0.889	0.873	0.844	0.813	0.795	0.794	0.748	0.722	0.674
1 µM, coculture fibroblast: HMF	0.845	0.9331	0.875	0.85575	0.789	0.783	0.7325	0.715	0.691
1 µM, coculture fibroblast: HPFa	0.913	0.8795	0.8653	0.8268	0.828	0.823	0.769	0.747	0.669
1 µM, coculture fibroblast: HUF	0.872	0.81	0.7802	0.7187	0.681	0.663	0.615	0.597	0.577
1 µM, coculture fibroblast: Hs5	0.967	0.93	0.878	0.853	0.788	0.754	0.718	0.691	0.684
1 µM, coculture fibroblast: Hs27A	0.882	0.863	0.797	0.798	0.762	0.758	0.717	0.692	0.644
1 µM, coculture fibroblast: Hs343T	0.864	0.916	0.881	0.865	0.794	0.782	0.74	0.716	0.69
1 µM, coculture fibroblast: WS1	0.818	0.761	0.741	0.679	0.641	0.617	0.597	0.57	0.566
10 µM, coculture fibroblast: C12385	0.824	0.704	0.677	0.633	0.583	0.571	0.517	0.47	0.431
10 µM, coculture fibroblast: H6013	0.8977	0.743	0.654	0.507	0.404	0.369	0.331	0.308	0.246
10 µM, coculture fibroblast: H6019	0.841	0.73	0.67	0.568	0.501	0.454	0.399	0.36	0.335
10 µM, coculture fibroblast: H6076	0.975	0.743	0.585	0.495	0.382	0.344	0.293	0.271	0.267
10 µM, coculture fibroblast: H6231	0.8354	0.6583	0.419	0.366	0.268	0.237	0.2	0.165	0.159
10 µM, coculture fibroblast: HADF	0.881	0.836	0.687	0.487	0.395	0.363	0.313	0.289	0.219
10 µM, coculture fibroblast: HCFa	0.9115	0.8957	0.838	0.833	0.748	0.701	0.6	0.553	0.486
10 µM, coculture fibroblast: HCPF	0.8301	0.973	0.729	0.541	0.364	0.311	0.26	0.235	0.222
10 µM, coculture fibroblast: HHSteC	0.9363	0.753	0.702	0.531	0.378	0.345	0.296	0.266	0.212
10 µM, coculture fibroblast: HMF	0.852	0.927	0.764	0.615	0.424	0.369	0.292	0.257	0.243
10 µM, coculture fibroblast: HPFa	0.948	0.828	0.759	0.656	0.533	0.506	0.418	0.384	0.296
10 µM, coculture fibroblast: HUF	0.8692	0.674	0.575	0.402	0.308	0.275	0.221	0.196	0.171
10 µM, coculture fibroblast: Hs5	0.841	0.7632	0.638	0.52	0.368	0.317	0.2731	0.239	0.2289
10 µM, coculture fibroblast: Hs27A	0.92	0.869	0.767	0.679	0.486	0.418	0.363	0.33	0.257
10 µM, coculture fibroblast: Hs343T	0.922	0.747	0.5232	0.437	0.313	0.272	0.229	0.2	0.1823
10 µM, coculture fibroblast: WS1	0.827	0.74868	0.564	0.364	0.288	0.246	0.216	0.184	0.166
100 µM, coculture fibroblast: C12385	0.634	0.291	0.255	0.223	0.196	0.2	0.169	0.146	0.134
100 µM, coculture fibroblast: H6013	0.33	0.252	0.229	0.2054	0.19	0.189	0.155	0.14	0.105
100 µM, coculture fibroblast: H6019	0.453	0.306	0.272	0.255	0.231	0.252	0.235	0.23	0.226
100 µM, coculture fibroblast: H6076	0.403	0.275	0.261	0.283	0.234	0.238	0.207	0.195	0.223
100 µM, coculture fibroblast: H6231	0.425	0.257	0.261	0.305	0.295	0.318	0.319	0.325	0.34
100 µM, coculture fibroblast: HADF	0.31	0.225	0.196	0.177	0.163	0.163	0.129	0.113	0.0827
100 µM, coculture fibroblast: HCFa	0.51	0.283	0.244	0.215	0.206	0.208	0.172	0.144	0.113
100 µM, coculture fibroblast: HCPF	0.513	0.369	0.327	0.353	0.291	0.275	0.234	0.23	0.218
100 µM, coculture fibroblast: HHSteC	0.386	0.291	0.265	0.232	0.217	0.219	0.183	0.159	0.123
100 µM, coculture fibroblast: HMF	0.38	0.292	0.265	0.279	0.23	0.239	0.215	0.216	0.207
100 µM, coculture fibroblast: HPFa	0.78	0.325	0.273	0.227	0.222	0.225	0.201	0.185	0.143
100 µM, coculture fibroblast: HUF	0.532	0.244	0.202	0.163	0.14	0.136	0.104	0.0951	0.0886
100 µM, coculture fibroblast: Hs5	0.415	0.237	0.222	0.216	0.172	0.16	0.141	0.123	0.14
100 µM, coculture fibroblast: Hs27A	0.355	0.237	0.198	0.181	0.172	0.178	0.152	0.14	0.122
100 µM, coculture fibroblast: Hs343T	0.375	0.285	0.278	0.289	0.243	0.246	0.23	0.234	0.225
100 µM, coculture fibroblast: WS1	0.347	0.231	0.208	0.183	0.159	0.159	0.137	0.124	0.12

Reference: the supplement of paper PMC6078165
